Literature values as cited in US20230165842A1, “NEW USES” (priority 2020, published 2023).
Values joined by “and” are separate entries in the source; they are usually repeats but may differ in a detail not shown here. Equal entries are not always repeated. Where two headings read alike, the source gives them in different places. At least one structure is not confirmed: it was looked up by name or label, or the drawing left a doubt.

Legend:
SARS-CoV-2 [1] = conditions: 10^−9M for 24 hours before infection; MOI 0.2; 24 hours post-infection; p<0.05
SARS-CoV-2 [2] = system: SARS-CoV-2
SARS-CoV-2 [3] = conditions: Calu-3; MOI 0.05; 24 hpi
[4] = Disposition, one value per patient (Patient 1-6)
[5] = one value per patient (Patient 1-6), Patients 1-5 420 mg/d, Patient 6 140-HELD-420

Which “reduction in cellular viral load” value (SARS-CoV-2 [1]) does the source give for `C[C@]12CC[C@@H]3c4ccc(O)cc4CC[C@H]3[C@@H]1CC[C@@H]2O` [Compound 25, estradiol] here?
Its value is “over 40%”.

For `CCOC(=O)C1=C(C)NC(C)=C(C(=O)OC)C1c1cccc(Cl)c1Cl` (centres unmarked) [Compound 30, felodipine], which “diminished SARS-CoV-2 growth” value (SARS-CoV-2 [2]; 10 μM) is on record?
The value was “by half”.

What about the virus detection (SARS-CoV-2 [2]; 50 μM) of the same compound?
The virus detection was “no virus was detected”.

What about the EC50 (SARS-CoV-2 [3]) of the same compound?
The EC50 was 12.6 nM.

Which COVID-19 symptoms improved (COVID-19 in WM patients; [4]) does the source give for `C=CC(=O)N1CCC[C@@H](n2nc(-c3ccc(Oc4ccccc4)cc3)c3c(N)ncnc32)C1` [Compound 133, ibrutinib] here?
The COVID-19 symptoms improved was “Yes”.

And the COVID-19 symptoms resolved (COVID-19 in WM patients; [4])?
Its COVID-19 symptoms resolved is “No (2×) and Yes (4×)”.

What about the Cough (COVID-19 in WM patients; [5]) of the same compound?
Its Cough is “Yes”.

And the Dyspnea (COVID-19 in WM patients; [5])?
The Dyspnea was “No (5×) and Yes”.

And the Fever (COVID-19 in WM patients; [5])?
Its Fever is “Yes”.

What about the Hospitalization (COVID-19 in WM patients; [5]) of the same compound?
Its Hospitalization is “No (5×) and Yes”.

And the “Other COVID-19 symptoms” value (COVID-19 in WM patients; [5])?
Its value is “No (3×) and Anorexia and Diarrhea and Headache”.

And the “Required ICU admission” value (COVID-19 in WM patients; [5])?
Its value is “No (5×) and Yes”.

And the Required mechanical ventilation (COVID-19 in WM patients; [5])?
The Required mechanical ventilation was “No (5×) and Yes”.

What about the “Required supplemental O2” value (COVID-19 in WM patients; [5]) of the same compound?
Its value is “No (5×) and Yes”.

What about the Smell loss (COVID-19 in WM patients; [5]) of the same compound?
Its Smell loss is “No (4×) and Yes (2×)”.

And the Sore throat (COVID-19 in WM patients; [5])?
Its Sore throat is “Yes (2×) and No (4×)”.

What about the Taste loss (COVID-19 in WM patients; [5]) of the same compound?
The Taste loss was “No (4×) and Yes (2×)”.

What about the Dyspnea (COVID-19 in WM patients; the 5 patients on 420 mg/d) of the same compound?
The Dyspnea was “did not experience dyspnea”.

And the Hospitalization (COVID-19 in WM patients; the 5 patients on 420 mg/d)?
The Hospitalization was “did not require hospitalization”.

And the “course of COVID-19-related symptoms during follow-up” value (COVID-19 in WM patients; the 5 patients on 420 mg/d)?
The value was “steady improvement, and resolution or near resolution”.
